# The whole screen tested about 320,000 compounds, of which about 22,000 (6.9%) were called active. This list was built around the results that the source calls inconclusive (neither active nor inactive); the mix of calls is not that of the screen. Calls follow the shape of the dose curve; as a rule, active = well fitted inhibition curve with a large enough effect; inconclusive = small, poorly fitted or top-dose-only effect, or another doubt; inactive = no such curve, though single readings can be large or run the other way. Where the call is inconclusive, the potency comes from a doubtful curve fit.
# Assay: Primary qHTS for delayed death inhibitors of the malarial parasite plastid, 96 hour incubation
# Details: P. falciparum luciferase reporter growth; series mostly up to 28.7 µM; activity change, negative = inhibition: at the top concentration
# Summary of the method: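 Readout is luminescence from an integrated firefly luciferase in P. falciparum. Red cells, 2% hematocrit and 0.05% parasitemia final, were cultured with compound through two parasite generations (96 hours) at 37 C, 5% CO2.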
# % is scaled to controls: 0 for no effect and ±100 for the full control effect; potency is read from the fitted curve at half-maximal effect.
SMILES,"activity change, negative = inhibition",Potency
Cc1nnc(N/N=C\c2ccc(-c3cccc(C(=O)O)c3)o2)n1N,inactive: 31.3%,–
C=CCOc1cccc(C2C(C(=O)c3cc4ccccc4o3)=C(O)C(=O)N2c2cc(C)on2)c1 (configuration not stated),–,"inconclusive: 4.65 µM [inhibitor, partial curve]"
CCCCOP(=O)(OCCCC)C(O)c1ccc(Br)cc1 (configuration not stated),–,"inconclusive: 14.7 µM [inhibitor, single point]"
CCC(C(=O)NCCCN1CC(C)CC(C)C1)n1nc(C)c2sc3ccccc3c2c1=O (configuration not stated),–,"inconclusive: 18.5 µM [inhibitor, single point]"
CCCCC(=O)Nc1nc(-c2ccc(S(=O)(=O)N3CCOCC3)cc2)cs1,–,"inconclusive: 18.5 µM [inhibitor, single point]"
COc1ccc(Nc2oc(COc3ccccc3OC)nc2C#N)cc1,–,"inconclusive: 11.7 µM [inhibitor, single point]"
CC1CCCC(C)N1C(=O)CSc1nnc(COc2ccccc2)n1-c1ccccc1 (configuration not stated),–,active: 14.7 µM
Cc1cc(C(=O)NNC(=O)c2c(-c3c(Cl)cccc3Cl)noc2C)no1,–,"inconclusive: 20.8 µM [inhibitor, single point]"
CCOC(=O)C(C)(C)Sc1ncnc2nc[nH]c12,–,"inconclusive: 18.5 µM [inhibitor, single point]"
COc1cccc(N(CC(=O)N2CCCCCC2)S(C)(=O)=O)c1,–,"inconclusive: 5.22 µM [inhibitor, partial curve, poor fit]"
CCOC(=O)c1nn(-c2ccc(F)cc2)c(=O)c(C#N)c1C,–,"inconclusive: 18.5 µM [inhibitor, single point]"
CS(=O)(=O)c1ccc2nc(NC(=O)c3ccc(NS(=O)(=O)c4cccc([N+](=O)[O-])c4)cc3)sc2c1,–,"inconclusive: 18.5 µM [inhibitor, single point]"
CC(=O)c1ccc(S(=O)(=O)N2CCN(c3nc(-c4cccnc4)nc4ccccc34)CC2)cc1,–,"inconclusive: 10.4 µM [inhibitor, single point]"
CCOc1ccccc1-n1c(=O)c2ccccc2c2ccccc2c1=O,inactive: 32.8%,–
CN(CC(=O)Nc1cccc(F)c1)C(=O)C1CCN(C(=O)c2ccc(Cl)cc2)CC1,–,"inconclusive: 5.22 µM [inhibitor, partial curve, poor fit]"
CCN(CC)c1ccc2cc(C#N)c(=O)oc2c1,–,"inconclusive: 13.1 µM [inhibitor, single point]"
CN(CC(=O)Nc1cccc(F)c1)C(=O)c1ccc(NC2CC2)c([N+](=O)[O-])c1,–,"inconclusive: 0.0029 µM [inhibitor, full curve, poor fit]"

# Reprinted from the results shown for reference:
SMILES,"activity change, negative = inhibition",Potency
Cc1nnc(N/N=C\c2ccc(-c3cccc(C(=O)O)c3)o2)n1N,inactive: 31.3%,–
C=CCOc1cccc(C2C(C(=O)c3cc4ccccc4o3)=C(O)C(=O)N2c2cc(C)on2)c1 (configuration not stated),–,"inconclusive: 4.65 µM [inhibitor, partial curve]"

# Source: PubChem BioAssay AID504834 (National Center for Advancing Translational Sciences (NCATS), 2011)
